No constants are given. Whether binding was seen depends on the method and setting. Some binding calls cover weakened binding; strength is not graded here.
Molecular target: human SIRPα displayed on yeast (human) (UniProt P78324)
Test: FACS on yeast expressing hSIRPα

Sequences of proteins named here, by UniProt entry; tags and fusion partners are left off. Residues count along the entry.
UniProt P78324, residues 31-148: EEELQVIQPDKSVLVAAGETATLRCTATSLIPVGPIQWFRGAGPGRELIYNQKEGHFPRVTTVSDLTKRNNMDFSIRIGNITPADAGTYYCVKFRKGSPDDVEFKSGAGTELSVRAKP

binding: binds
B1: CD20 BiME, anti-CD20/anti-SIRPα dual-variable-domain immunoglobulin (DVD-Ig) (bispecific antibody)
VH: QVQLQQPGAELVKPGASVKMSCKASGYTFTSYNMHWVKQTPGRGLEWIGAIYPGNGDTSYNQKFKGKATLTADKSSSTAYMQLSSLTSEDSAVYYCARSTYYGGDWYFNVWGAGTTVTVSSASTKGPEVQLQQSGAELVKPGASVKLSCTASGFNIKDYYIHWVQQRTEQGLEWIGRIDPEDGETKYAPKFQDKATITADTSSNTAYLHLSSLTSEDTAVYYCARWGAYWGQGTLVTVSS
VL: QIVLSQSPAILSASPGEKVTMTCRASSSVSYIHWFQQKPGSSPKPWIYATSNLASGVPVRFSGSGSGTSYSLTISRVEAEDAATYYCQQWTSNPPTFGGGTKLEIKRTVAAPQIVLTQSPAIMSASPGEKVTLTCSASSSVSSSYLYWYQQKPGSSPKLWIYSTSNLASGVPARFSGSGSGTSYSLTISSMEAEDAASYFCHQWSSYPRTFGAGTKLELK
